From PMC4587795
Results are given in words; binding and its absence hold for the method and conditions named. For some assays here: Binding seen in cells or lysates may run through a third protein. Some binding calls cover weakened binding; strength is not graded here.

Protein sequences, listed by entry. Tags and fused reporters are not part of them. Lines headed by an entry give the natural chain unless they say otherwise; changes in a name come on top. Chains listed by the source or under a name are the forms on record and can include a tag or linker.
UniProt Q13263: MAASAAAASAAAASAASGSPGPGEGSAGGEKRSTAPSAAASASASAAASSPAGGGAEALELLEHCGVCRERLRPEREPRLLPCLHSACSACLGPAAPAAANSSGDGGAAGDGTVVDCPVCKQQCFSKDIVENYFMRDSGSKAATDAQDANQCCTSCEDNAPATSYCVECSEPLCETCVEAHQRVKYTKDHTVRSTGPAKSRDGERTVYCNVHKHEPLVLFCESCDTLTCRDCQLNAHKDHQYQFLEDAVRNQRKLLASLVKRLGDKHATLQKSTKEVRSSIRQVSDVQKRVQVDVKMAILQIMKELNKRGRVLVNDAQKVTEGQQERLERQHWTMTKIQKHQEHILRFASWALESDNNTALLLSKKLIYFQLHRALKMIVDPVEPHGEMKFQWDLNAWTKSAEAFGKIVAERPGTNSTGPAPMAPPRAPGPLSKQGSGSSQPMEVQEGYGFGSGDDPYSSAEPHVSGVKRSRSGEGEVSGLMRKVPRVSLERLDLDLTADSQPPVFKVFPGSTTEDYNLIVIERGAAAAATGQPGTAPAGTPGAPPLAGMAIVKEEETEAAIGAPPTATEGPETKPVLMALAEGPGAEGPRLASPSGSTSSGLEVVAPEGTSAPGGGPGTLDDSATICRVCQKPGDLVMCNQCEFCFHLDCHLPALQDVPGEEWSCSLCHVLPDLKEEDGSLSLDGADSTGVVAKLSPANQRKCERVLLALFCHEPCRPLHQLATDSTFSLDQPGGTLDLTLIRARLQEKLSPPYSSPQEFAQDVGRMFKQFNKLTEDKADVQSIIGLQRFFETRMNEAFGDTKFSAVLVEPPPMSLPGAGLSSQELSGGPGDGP
intact ZFP809 (zinc finger protein 809), FLAG-tagged (G3X9G7-2, form named): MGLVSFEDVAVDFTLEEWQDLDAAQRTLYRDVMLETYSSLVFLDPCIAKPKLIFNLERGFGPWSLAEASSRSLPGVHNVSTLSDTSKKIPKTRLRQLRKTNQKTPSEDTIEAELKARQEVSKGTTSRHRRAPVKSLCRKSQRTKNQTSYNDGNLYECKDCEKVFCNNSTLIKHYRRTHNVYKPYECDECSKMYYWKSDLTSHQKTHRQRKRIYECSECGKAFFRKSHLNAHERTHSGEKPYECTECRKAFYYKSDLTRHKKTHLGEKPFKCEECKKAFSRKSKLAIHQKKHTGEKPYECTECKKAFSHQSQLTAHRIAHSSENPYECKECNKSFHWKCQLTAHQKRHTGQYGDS

How the values were obtained:
[1] = target: KRAB-associated protein 1 (KAP1) (human (endogenous in 293FT)) (UniProt Q13263); assay: native gel or EMSA; nuclear extracts of transduced 293FT cells with 32P-labelled MLV-PBS probe; anti-KAP1 monoclonal antibody added for super-shift of the protein-DNA complex; 8% gel
[2] = target: KRAB-associated protein 1 (KAP1) (human (endogenous in 293FT)) (UniProt Q13263); assay: co-IP; lysates of 293FT cells transduced with the lentiviral vectors; anti-KAP1 polyclonal or anti-FLAG monoclonal antibody on Dynabeads protein G, 15 min at room temperature; Western blot with anti-DDDDK tag or anti-KAP1 antibodies

binding [1]: binds | binding [2]: binds
Substance: intact ZFP809 (zinc finger protein 809), FLAG-tagged (from UniProt G3X9G7-2 1-354)
